Measurements: patent US20120027756A1 (IRM, published 2012)
No constants are given. Whether binding was seen depends on the method and setting. Some binding calls cover weakened binding; strength is not graded here.

Biological target: T1, Human TSLPR fragment 67-693 (human) (UniProt Q9HC73)
T1 sequence (receptor fragment, looked up): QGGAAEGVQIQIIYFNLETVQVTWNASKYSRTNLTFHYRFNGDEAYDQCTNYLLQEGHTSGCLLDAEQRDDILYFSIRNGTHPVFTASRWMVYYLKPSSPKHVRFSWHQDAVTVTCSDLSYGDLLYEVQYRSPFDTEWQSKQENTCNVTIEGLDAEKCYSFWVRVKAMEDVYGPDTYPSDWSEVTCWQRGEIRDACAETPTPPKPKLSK
Test: ELISA of antibody 1D6.C9 on human TSLPR fragments (OD650); hFc bars as control for the fragment

binding: binds
B1: mouse anti-hTSLPR monoclonal antibody clone 1D6.C9 (antibody, V domains shown)
VH: QIQLGQSGPELKKPGETVKISCKASGYTFTTYGMSWVKQAPGKGLQWMGWINTYSGVPRYADDFKGRFAFSLETSASTAYLQIYNLKNEDTATYFCTREGFITTVVGAAGRFVYWGQGTLVTVSA
VL: DIVMTQSHKFMSTSVGDRVSITCKASQDVGTAVAWYQQKPGQSPKLLIYWASTRHTGVPDRFTGSGSGTDFTLTLNNVQSEDLADYFCQQYSTYPTFGSGTKLELKR
notes: also called mAb 1D6.C9; mouse anti-hTSLPR antibody
